# Data as given in EP2608671B1, “COMPOUNDS FOR TREATMENT OF CANCER” (Gtx, Inc., priority 2010, dated 2012).
# For at least one compound, name, drawing or mass did not settle the structure.
# Tested on: MDA-MB-435/LCC6MDR1
# Assay: SRB growth inhibition, multidrug-resistant melanoma line
# Assay type: cell-based
# Settings: IC50 MDA-MB-435/LCC6MDR1 divided by IC50 MDA-MB-435
smiles,measurement,value
"COc1cc(-c2nc(C(=O)c3ccc(F)cc3)cn2S(=O)(=O)c2ccccc2)cc(OC)c1OC [11eb, (4-fluorophenyl)(1-(phenylsulfonyl)-2-(3,4,5-trimethoxyphenyl)-1H-imidazol-4-yl)methanone]",Resistance index,0.8
